Results: article PMC4043820
Construct, isoform or probe ends are uncertain for at least one entry.

Amino acid sequences for entries named in this document (tags omitted).
UniProt A7BEY7, entry or part of it: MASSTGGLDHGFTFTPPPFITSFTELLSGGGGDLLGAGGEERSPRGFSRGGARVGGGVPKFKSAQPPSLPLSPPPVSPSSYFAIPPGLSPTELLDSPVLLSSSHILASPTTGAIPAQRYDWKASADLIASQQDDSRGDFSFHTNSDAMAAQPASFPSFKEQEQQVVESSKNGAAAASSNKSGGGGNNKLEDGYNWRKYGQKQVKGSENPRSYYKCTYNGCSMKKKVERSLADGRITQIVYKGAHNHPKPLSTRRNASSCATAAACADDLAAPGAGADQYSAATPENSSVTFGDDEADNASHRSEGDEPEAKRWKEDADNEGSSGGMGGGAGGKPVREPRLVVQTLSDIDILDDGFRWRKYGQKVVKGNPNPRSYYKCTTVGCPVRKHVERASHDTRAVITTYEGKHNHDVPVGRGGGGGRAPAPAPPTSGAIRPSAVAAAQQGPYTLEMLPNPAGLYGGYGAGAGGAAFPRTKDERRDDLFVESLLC

Molecular target: phospho-OsWRKY53 (Oryza sativa (rice)) (UniProt A7BEY7)
Experiment: EMSA
Conditions: OsMPK6 + OsMKK4DD + ATP, no distinct difference from unphosphorylated; 12 mM HEPES-KOH pH 8.0, 60 mM KCl, 4 mM MgCl2, 1 mM EDTA, 12% glycerol, 1 mM DTT, 2.5 mM PMSF, 0.1 ug protein in 20 ul, 20 min on ice; recombinant protein; protein details: N-terminal Trx-His (pET-32b(+)); label: 32P 5' end label (unlabeled as competitor); probe letters rebuilt from the primers and the genome

## TTTGGGGATGCTTCGGCGAAGGGGGTGAGGTCAAAGCTCGTGCGGTTTGACCGGTCAGACGAGGCGGCTGAGGCTCGCGC (double strand) [W-box probe (W)]
  binding result: binds
